PMC6614837 (Nucleic Acids Research, 2019)
The exact form of at least one protein or probe is not confirmed. A weaker result is weaker than the reference pair of the same experiment. Where a protein sequence is shown, tags need not be part of it.

Molecular target: T1, RNase P protein (TmP, P protein) (Thermotoga maritima) (UniProt Q9X1H4)
T1 sequence (looked up, limits assumed): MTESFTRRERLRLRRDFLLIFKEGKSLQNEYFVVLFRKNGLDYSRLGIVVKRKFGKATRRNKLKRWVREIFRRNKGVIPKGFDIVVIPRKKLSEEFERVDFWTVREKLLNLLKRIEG
Test: BLI
Conditions: 5 uM leader, BLI (Octet RED96): 20 mM HEPES pH 7.4, 100 mM ammonium acetate, 10 mM MgCl2, 2.5-5% DMSO, 30 C, P protein:P RNA in 33 mM Tris, 66.6 mM HEPES, 200 mM ammonium acetate, recombinant protein, protein details: N-terminal His6 (GST fusion cleaved with TEV)

## GGAAAAAGAU [5' RNA leader (10 nt)]
100 uM hematein
  binding result: binds more weakly
100 uM purpurin
  binding result: binds more weakly
